Results as given in PMC5009287.
Results are given in words; binding and its absence hold for the method and conditions named. Some results given as binding are weak or reduced against the parent protein; the word gives no strength.

Protein sequences, listed by entry. Tags and fused reporters are not part of them. Lines headed by an entry give the natural chain unless they say otherwise; changes in a name come on top. Residues count along the entry.
UniProt P02454: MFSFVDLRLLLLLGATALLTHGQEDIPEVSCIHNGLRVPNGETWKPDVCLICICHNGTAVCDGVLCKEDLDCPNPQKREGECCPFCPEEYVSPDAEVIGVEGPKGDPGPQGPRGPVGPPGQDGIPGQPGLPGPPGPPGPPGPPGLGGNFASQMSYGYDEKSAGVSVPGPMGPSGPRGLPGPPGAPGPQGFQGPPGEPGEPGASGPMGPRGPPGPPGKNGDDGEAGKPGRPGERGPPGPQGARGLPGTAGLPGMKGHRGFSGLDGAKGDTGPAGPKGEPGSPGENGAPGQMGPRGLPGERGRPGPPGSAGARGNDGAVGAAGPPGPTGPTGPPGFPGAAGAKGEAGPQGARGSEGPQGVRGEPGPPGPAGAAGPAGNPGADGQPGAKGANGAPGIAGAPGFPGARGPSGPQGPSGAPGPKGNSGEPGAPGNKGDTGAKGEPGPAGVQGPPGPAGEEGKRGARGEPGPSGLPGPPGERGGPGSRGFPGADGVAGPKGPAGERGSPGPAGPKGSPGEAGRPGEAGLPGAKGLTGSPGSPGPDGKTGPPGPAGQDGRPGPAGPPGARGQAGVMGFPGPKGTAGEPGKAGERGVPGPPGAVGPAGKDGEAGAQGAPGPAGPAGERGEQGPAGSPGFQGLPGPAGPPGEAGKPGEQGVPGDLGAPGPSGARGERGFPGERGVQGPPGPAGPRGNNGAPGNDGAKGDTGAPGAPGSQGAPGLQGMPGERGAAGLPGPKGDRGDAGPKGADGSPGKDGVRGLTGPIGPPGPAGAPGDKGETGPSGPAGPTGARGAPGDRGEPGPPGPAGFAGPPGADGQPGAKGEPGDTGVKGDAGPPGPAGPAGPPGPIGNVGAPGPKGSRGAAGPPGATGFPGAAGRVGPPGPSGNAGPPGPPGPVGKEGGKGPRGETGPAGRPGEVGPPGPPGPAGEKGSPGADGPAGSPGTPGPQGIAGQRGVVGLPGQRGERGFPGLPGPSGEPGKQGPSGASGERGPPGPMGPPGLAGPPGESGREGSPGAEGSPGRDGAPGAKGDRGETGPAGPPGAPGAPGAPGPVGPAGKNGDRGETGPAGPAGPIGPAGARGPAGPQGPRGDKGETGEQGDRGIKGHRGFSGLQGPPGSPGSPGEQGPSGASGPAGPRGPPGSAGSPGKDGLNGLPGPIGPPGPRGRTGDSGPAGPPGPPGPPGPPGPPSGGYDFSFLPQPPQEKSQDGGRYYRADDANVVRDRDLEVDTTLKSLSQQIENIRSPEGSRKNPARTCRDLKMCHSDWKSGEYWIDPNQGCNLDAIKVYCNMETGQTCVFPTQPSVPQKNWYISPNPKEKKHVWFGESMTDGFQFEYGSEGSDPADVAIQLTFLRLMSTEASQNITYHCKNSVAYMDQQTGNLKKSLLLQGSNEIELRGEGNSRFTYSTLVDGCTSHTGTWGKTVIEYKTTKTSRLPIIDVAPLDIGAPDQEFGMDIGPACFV
UniProt P02466: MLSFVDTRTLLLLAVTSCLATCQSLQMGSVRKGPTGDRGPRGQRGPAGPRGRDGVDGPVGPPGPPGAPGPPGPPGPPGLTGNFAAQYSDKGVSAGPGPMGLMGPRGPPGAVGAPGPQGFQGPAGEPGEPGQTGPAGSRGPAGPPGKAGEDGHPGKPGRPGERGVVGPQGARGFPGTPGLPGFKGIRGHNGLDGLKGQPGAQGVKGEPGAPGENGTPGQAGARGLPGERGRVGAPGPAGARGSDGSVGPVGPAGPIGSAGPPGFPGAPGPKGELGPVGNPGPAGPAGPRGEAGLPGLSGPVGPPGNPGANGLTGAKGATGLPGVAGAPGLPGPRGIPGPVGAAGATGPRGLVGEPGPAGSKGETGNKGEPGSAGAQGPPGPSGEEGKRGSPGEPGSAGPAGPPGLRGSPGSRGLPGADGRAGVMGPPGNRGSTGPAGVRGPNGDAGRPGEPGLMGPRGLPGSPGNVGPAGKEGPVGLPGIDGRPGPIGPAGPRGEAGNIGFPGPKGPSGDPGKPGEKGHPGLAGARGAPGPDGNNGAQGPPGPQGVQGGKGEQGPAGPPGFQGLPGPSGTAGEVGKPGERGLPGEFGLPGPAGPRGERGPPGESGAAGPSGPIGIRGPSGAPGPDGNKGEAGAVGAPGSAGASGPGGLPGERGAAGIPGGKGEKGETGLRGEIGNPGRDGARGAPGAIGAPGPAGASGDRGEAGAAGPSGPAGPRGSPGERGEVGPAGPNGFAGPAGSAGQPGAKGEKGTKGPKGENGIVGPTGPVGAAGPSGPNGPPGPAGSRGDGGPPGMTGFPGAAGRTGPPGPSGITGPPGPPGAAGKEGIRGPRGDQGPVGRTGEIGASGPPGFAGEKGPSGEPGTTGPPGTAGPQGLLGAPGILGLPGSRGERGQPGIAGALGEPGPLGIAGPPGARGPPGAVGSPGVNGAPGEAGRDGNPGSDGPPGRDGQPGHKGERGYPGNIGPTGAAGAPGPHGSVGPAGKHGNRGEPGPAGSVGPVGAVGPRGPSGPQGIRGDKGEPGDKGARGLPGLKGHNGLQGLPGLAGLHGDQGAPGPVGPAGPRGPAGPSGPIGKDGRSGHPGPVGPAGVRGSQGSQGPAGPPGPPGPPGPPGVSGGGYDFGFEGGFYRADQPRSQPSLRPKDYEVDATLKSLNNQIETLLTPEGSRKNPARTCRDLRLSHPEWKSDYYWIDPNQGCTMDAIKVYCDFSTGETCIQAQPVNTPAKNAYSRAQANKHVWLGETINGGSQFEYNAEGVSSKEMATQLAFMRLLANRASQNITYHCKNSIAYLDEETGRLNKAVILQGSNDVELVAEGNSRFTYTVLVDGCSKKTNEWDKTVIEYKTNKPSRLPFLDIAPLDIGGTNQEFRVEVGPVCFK
UniProt P17301, residues 172-355: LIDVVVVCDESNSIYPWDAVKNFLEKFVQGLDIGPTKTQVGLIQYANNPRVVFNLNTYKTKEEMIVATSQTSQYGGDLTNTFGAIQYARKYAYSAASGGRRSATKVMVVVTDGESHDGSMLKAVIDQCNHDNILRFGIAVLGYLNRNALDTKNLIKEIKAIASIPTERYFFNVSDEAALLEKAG

Tests used:
[1] = molecular target: T1, native type I collagen from rat tail (rat) (UniProt P02454+P02466); test: ELISA; solid-state binding assay: native recombinant collagens or rat tail type I collagen (0.02 mg/ml) immobilised on 96-well plates, GST-I domain in 1× PBS with 2 mM MgCl2 added for 1 h at room temperature, detected with anti-GST HRP antibody, A450; single I domain concentration (Figs. 3, 4A) and dose response 0-1.8 μM (Fig. 4B); both purified
[2] = molecular target: T1, native type I collagen from rat tail (rat); test: condition: only collagen denatured at 75 °C for 30 min; ELISA; solid-state binding assay as a1, but the collagens (20 μg/ml) denatured at 75 °C for 30 min and immobilised immediately; both purified

binding [1]: binds | binding [2]: no binding
Substance: recombinant I domain from the integrin α2 subunit (from UniProt P17301 172-355) (domain or fragment)
